PubChem BioAssay AID1259308 – NCATS – 2017

Aim: 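Candidate targets for better recombinant protein yield in mammalian cells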 (primary screen)
Cell system: human HEK293 embryonic kidney cells stably expressing firefly luciferase (HEK-CMV-Luc2-Hygro)
Knock-down reagent: single siRNA against human genes, 0.8 pmol siRNA per well
Time to read-out: 72 h
Measured: 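Reporter luminescence and viable-cell signal on separate replicate plates, given as percent of non-targeting control and median/MAD z-scores, plus per-cell luciferase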
Reading the numbers: total luciferase, z-score and total luciferase, % of control: higher = more reporter protein produced
Hit rule: 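An siRNA counts as active if its total luciferase robust z-score exceeds 3; genes with two or more such siRNAs out of three were retested with fresh siRNAs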
Calls: active = raised luciferase; inactive = no rise
Shown is an unselected part of about 59,000 deposited reagents. Over the whole deposit, about 1,510 (2.6%) are marked active. 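Calls use total luciferase alone and ignore viability, so some active siRNAs may act by altering cell number.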 Unmarked entries are inactive. The numbers tell different reagents against one gene apart. Not all columns of the deposit are shown.

no.	target	siRNA no.	total luciferase, z-score	total luciferase, % of control
1	KLF12 (KLF transcription factor 12)	1	-0.975	62.5
2	KLF12 (KLF transcription factor 12)	2	-1.67	48.7
3	KLF12 (KLF transcription factor 12)	3	-0.133	79.3
4	MEIOSIN (meiosis initiator)	1	0.0227	82.3
5	MEIOSIN (meiosis initiator)	2	5.89 (active)	199
6	MEIOSIN (meiosis initiator)	3	0.362	89.1
7	PARL (presenilin associated rhomboid like)	1	-1.95	43.2
8	PARL (presenilin associated rhomboid like)	2	-1.23	57.5
9	PARL (presenilin associated rhomboid like)	3	-0.112	79.7
10	PRKX (protein kinase cAMP-dependent X-linked catalytic subunit)	1	-1.72	47.6
11	PRKX (protein kinase cAMP-dependent X-linked catalytic subunit)	2	-0.537	71.2
12	PRKX (protein kinase cAMP-dependent X-linked catalytic subunit)	3	-0.288	76.2
13	LARGE1 (LARGE xylosyl- and glucuronyltransferase 1)	1	-1.66	49
14	LARGE1 (LARGE xylosyl- and glucuronyltransferase 1)	2	0.217	86.2
15	LARGE1 (LARGE xylosyl- and glucuronyltransferase 1)	3	-1.41	53.9
16	MASP1 (MBL associated serine protease 1)	1	2.66	135
17	MASP1 (MBL associated serine protease 1)	2	-1.24	57.1
18	MASP1 (MBL associated serine protease 1)	3	-0.436	73.2
19	KCNG4	1	-0.143	79
20	KCNG4	2	-0.188	78.2
21	KCNG4	3	0.669	95.2

Continued (2 carried over from the part before).
no.	target	siRNA no.	total luciferase, z-score	total luciferase, % of control
20	KCNG4	2	-0.188	78.2
21	KCNG4	3	0.669	95.2
22	ZNF451 (zinc finger protein 451)	1	0.0598	83.1
23	ZNF451 (zinc finger protein 451)	2	0.0985	83.8
24	ZNF451 (zinc finger protein 451)	3	-1.85	45.1
25	DCAKD (dephospho-CoA kinase domain containing)	1	-0.116	79.6
26	DCAKD (dephospho-CoA kinase domain containing)	2	0.287	87.6
27	DCAKD (dephospho-CoA kinase domain containing)	3	-0.133	79.2
28	LGALS14 (galectin 14)	1	-0.5	71.9
29	LGALS14 (galectin 14)	2	-1.03	61.4
30	LGALS14 (galectin 14)	3	-1.51	51.9
31	C2orf72 (chromosome 2 open reading frame 72)	1	1.27	107
32	C2orf72 (chromosome 2 open reading frame 72)	2	-0.744	67.1
33	C2orf72 (chromosome 2 open reading frame 72)	3	0.117	84.2
34	RB1 (RB transcriptional corepressor 1)	1	0.000771	81.9
35	RB1 (RB transcriptional corepressor 1)	2	-1.64	49.3
36	RB1 (RB transcriptional corepressor 1)	3	0.732	96.4
37	SUSD2P1 (sushi domain containing 2 pseudogene 1)	1	0.678	95.4
38	SUSD2P1 (sushi domain containing 2 pseudogene 1)	2	0.0239	82.4
39	SUSD2P1 (sushi domain containing 2 pseudogene 1)	3	-1.28	56.3
40	PXMP4 (peroxisomal membrane protein 4)	1	2.15	125
41	PXMP4 (peroxisomal membrane protein 4)	2	0.264	87.1
42	PXMP4 (peroxisomal membrane protein 4)	3	0.17	85.3
43	BAZ2B (bromodomain adjacent to zinc finger domain 2B)	1	-0.957	62.9
44	BAZ2B (bromodomain adjacent to zinc finger domain 2B)	2	0.094	83.8
45	BAZ2B (bromodomain adjacent to zinc finger domain 2B)	3	-0.157	78.8
46	ZFP69 (ZFP69 zinc finger protein)	1	-0.447	73
47	ZFP69 (ZFP69 zinc finger protein)	2	0.0841	83.6
48	ZFP69 (ZFP69 zinc finger protein)	3	0.0768	83.4
49	OPTC (opticin)	1	-0.638	69.2
50	OPTC (opticin)	2	-1.34	55.3
51	OPTC (opticin)	3	-0.119	79.5
52	ANKRD36 (ankyrin repeat domain 36)	1	-0.218	77.6
53	ANKRD36 (ankyrin repeat domain 36)	2	0.404	89.9
54	ANKRD36 (ankyrin repeat domain 36)	3	-1.38	54.4
55	ELOC (elongin C)	1	-1.07	60.5
56	ELOC (elongin C)	2	2.24	126
57	ELOC (elongin C)	3	-0.9	64
